Laboratory results from the supplement of paper PMC12889115.
This is one part of the list. Values are raw readings; no control value is given beside them.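 First-pass screen: polymyxin B was added at a level that permeabilizes the Salmonella outer membrane while sparing the inner membrane. DMSO wells, with and without polymyxin B, defined maximum growth. Because plates differed from one another, each plate's data were ranked separately and the compounds with the lowest OD600 were carried forward as hits.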

Test system: Salmonella enterica serovar Typhimurium SL1344
Test: bacterial growth OD600 after 18 h with compound and polymyxin B; higher = more bacterial growth (less inhibition)
Details: 50 µM, Mueller-Hinton broth

| SMILES | bacterial growth OD600 (polymyxin B 1 µg/mL) | bacterial growth OD600 (polymyxin B 0.75 µg/mL) |
| --- | --- | --- |
| Cc1cccn2c(CNCCc3ccncc3)c(C(=O)N3CCOCC3)nc12 | 1.01 | – |
| Cc1ccc(CN2CCC(CN(C)Cc3c(C)n(C)n(-c4ccccc4)c3=O)CC2)o1 | 1.14 | – |
| CCc1csc(CNC(=O)c2ccc(N(C)Cc3cnccn3)nc2)n1 | – | 0.778 |
| COc1cccc(OCC2CCCN(C(=O)CCC3(Cc4ccccc4)CCC(=O)N3)C2)c1 (centres undefined) | – | 0.008 |
| O=C(NCCCc1ccccn1)c1ccc(N2CCCOCC2)nc1 | – | 0.858 |
| COc1cc2nc(N(C)C)c(CNCc3ccc(C(F)(F)F)cc3)cc2c(OC)c1OC | – | 0.899 |
| CSCCNCc1c(C(=O)N2CCCCCCC2)nc2ccc(Cl)cn12 | – | 0.586 |
| CCOC(=O)N1CCN(C(=O)CC2(c3cccc(C(F)(F)F)c3)CC(=O)N(C3CC3)C2=O)CC1 (centres undefined) | – | 0.798 |
| Cc1cnccc1CN(C)C(=O)CC(c1cccc(O)c1)c1ccccc1Cl (centres undefined) | 0.012 | – |
| Cc1cc(C(=O)NCc2cccnc2N2CCN(c3ccccn3)CC2)no1 | – | 0.709 |
| Cc1ccnc(N2CCC(C3CCN(Cc4cccnc4)CC3)C2)c1 (centres undefined) | – | 0.78 |
| O=C(CCC1(Cc2ccc(Cl)cc2)CCC(=O)N1)NCc1nc2c(s1)CCCC2 (centres undefined) | – | 1.05 |
| CC(C)CC(C)N1CCC(N2CCC(C(=O)NCc3cccnc3)CC2)CC1 (centres undefined) | 0.749 | – |
| COCCO[C@H]1[C@H](NC(=O)C(C)C)c2ccccc2C12CCN(Cc1cc(C)c(OC)cc1C)CC2 | – | 0.862 |
| COc1ccc(-n2ncc(C(C)NC3CCN(Cc4ccccn4)CC3)c2C)cc1 (centres undefined) | 0.896 | – |
| COC(=O)c1ccccc1NC(=O)N1CCCC(C(=O)c2cccc(Cl)c2)C1 (centres undefined) | 0.8 | – |
| Cc1ccc2occ(CN3CCOc4ccc(C(O)CCc5ccccc5)cc4C3)c(=O)c2c1 (centres undefined) | – | 0.003 |
| COc1cccc(OCc2nc(C(=O)N3CCCCCCC3)co2)c1 | 1.02 | – |
| COc1ccc(-c2ccccc2NC(=O)C2CCCN2C(=O)CCNC(C)=O)cc1 (centres undefined) | 0.997 | – |

Single values from the entries so far:
`O=C(NCCCc1ccccn1)c1ccc(N2CCCOCC2)nc1` | bacterial growth OD600 (polymyxin B 0.75 µg/mL): 0.858
`COc1ccc(-n2ncc(C(C)NC3CCN(Cc4ccccn4)CC3)c2C)cc1` (centres undefined) | bacterial growth OD600 (polymyxin B 1 µg/mL): 0.896
